Test results: patent US20240279845A1 (ECOLE POLYTECHNIQUE FEDERALE DE LAUSANNE (EPFL), priority 2021, published 2024)

Key:
[1] = general procedure: Fmoc solid-phase peptide synthesis; resin 5 (PS thiol resin); conditions: whole synthesis, scale of the general procedure 5 μmol, one disulfide bridge, sequence written open, run 1
[2] = general procedure: Fmoc solid-phase peptide synthesis; resin 4 (apolar PS resin); conditions: whole synthesis, scale of the general procedure 5 μmol, one disulfide bridge, sequence written open, run 1

Mpa-Gly-GIn-Trp-Mea
crude LC-MS purity [1]: 93±1%
crude LC-MS purity [2]: 95±4%
